The text below walks through data of patent publication US20250381255A1.

Protein sequences, listed by entry. Tags and fused reporters are not part of them. Lines headed by an entry give the natural chain unless they say otherwise; changes in a name come on top.
UniProt P07306: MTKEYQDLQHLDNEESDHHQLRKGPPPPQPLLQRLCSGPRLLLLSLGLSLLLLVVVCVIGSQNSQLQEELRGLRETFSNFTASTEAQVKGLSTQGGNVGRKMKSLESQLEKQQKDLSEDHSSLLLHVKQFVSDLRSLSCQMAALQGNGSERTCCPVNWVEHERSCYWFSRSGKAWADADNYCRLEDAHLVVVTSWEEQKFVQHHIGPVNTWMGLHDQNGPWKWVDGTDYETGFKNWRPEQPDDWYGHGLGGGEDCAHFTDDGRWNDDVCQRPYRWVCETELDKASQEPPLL

Results are given in words; binding and its absence hold for the method and conditions named. Some entries that bind do so weakly or less than the wild type.

The target in this experiment is human asialoglycoprotein receptor 1 (ASGR1) extracellular domain (human) (UniProt P07306). In words: pH and Ca2+ dependency by SPR (Biacore), BLI (Octet) and cell based assays.

B1: mAb-60881 (antibody, V domains shown)
VH: QVQLQESGPGLVKPSETLSLTCAVSGYSISSGYYWGWIRQPPGKGLEWIGSIYHSGSTYYNPSLKSRVTISVDTSKNQFSLKLSSVTAADTAVYYCAREAGYPERGYGMDVWGQGTTVTVSS
VL: EIVMTQSPATLSVSPGERATLSCRASQSVSSNLAWYQQKPGQAPRLLIYGASTRATGIPARFSGSGSGTEFTLTISSLQSEDFAVYYCQQYFHHPFTFGGGTKVEIK
As to B1, the binding entry was “binds”.
